Results of single-concentration screens

Amino acid sequences for entries named in this document (tags omitted). Residues count along the entry.
UniProt Q4DA54, 1-478: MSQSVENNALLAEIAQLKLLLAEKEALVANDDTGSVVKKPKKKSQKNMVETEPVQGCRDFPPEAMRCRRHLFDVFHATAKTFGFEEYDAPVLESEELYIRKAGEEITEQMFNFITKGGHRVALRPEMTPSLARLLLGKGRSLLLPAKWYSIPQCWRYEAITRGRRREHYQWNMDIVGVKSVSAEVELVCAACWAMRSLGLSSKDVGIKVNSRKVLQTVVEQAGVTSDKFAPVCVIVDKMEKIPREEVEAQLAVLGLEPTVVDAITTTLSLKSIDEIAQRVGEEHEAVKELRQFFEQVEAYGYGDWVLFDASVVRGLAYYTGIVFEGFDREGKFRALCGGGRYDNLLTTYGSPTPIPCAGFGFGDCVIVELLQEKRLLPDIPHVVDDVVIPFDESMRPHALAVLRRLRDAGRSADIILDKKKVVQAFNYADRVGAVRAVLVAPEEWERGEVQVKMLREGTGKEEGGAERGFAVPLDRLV
UniProt P9WNZ1, whole entry: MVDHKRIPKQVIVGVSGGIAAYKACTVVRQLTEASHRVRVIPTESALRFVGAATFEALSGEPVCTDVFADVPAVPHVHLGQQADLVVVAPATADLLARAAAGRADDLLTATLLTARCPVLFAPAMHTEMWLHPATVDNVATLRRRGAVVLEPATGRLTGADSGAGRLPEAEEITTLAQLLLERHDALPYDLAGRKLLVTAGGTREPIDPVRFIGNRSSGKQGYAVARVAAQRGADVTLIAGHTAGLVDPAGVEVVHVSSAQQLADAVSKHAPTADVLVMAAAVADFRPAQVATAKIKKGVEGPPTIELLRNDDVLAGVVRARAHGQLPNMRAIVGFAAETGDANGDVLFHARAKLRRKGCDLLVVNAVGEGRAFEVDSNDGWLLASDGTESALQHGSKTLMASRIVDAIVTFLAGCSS
UniProt A4I591, 1-473: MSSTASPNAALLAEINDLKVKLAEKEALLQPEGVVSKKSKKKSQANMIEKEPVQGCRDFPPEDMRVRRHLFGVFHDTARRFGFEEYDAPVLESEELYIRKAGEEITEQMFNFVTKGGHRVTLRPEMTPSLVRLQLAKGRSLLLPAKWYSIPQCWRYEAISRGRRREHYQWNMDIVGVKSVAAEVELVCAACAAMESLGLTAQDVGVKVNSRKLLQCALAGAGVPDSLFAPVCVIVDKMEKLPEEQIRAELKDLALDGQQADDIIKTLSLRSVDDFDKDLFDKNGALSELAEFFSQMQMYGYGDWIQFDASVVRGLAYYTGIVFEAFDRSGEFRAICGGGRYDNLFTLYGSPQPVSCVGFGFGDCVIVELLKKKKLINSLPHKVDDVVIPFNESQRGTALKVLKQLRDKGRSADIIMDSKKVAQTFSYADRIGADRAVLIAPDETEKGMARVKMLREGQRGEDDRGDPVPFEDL

A: 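Enzyme assay of histidyl-tRNA synthetase; the read-out is not stated. Target: Histidine-tRNA ligase, Trypanosoma cruzi CL Brener (UniProt Q4DA54). Compounds at 30 µM. Direction is inferred from retests: higher values go with stronger inhibition. Of about 69,000 compounds tested this way, about 31 (0.045%) reached 50% or more in at least one test.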
B: 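Enzyme assay of CoaBC with a phosphate dye (Biomol Green) read at 650 nm. Target: Coenzyme A biosynthesis protein CoaBC, Mycobacterium tuberculosis (UniProt P9WNZ1). Compounds at 30 µM. Higher reads as stronger inhibition, judged from the few compounds that gave an IC50. Most strong results did not repeat in a second test. About 67,000 compounds were tested under these conditions; 0.06% (about 40) showed 50% or more at least once.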
C: 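Histidine-tRNA ligase, Leishmania infantum (UniProt A4I591). Enzyme assay of histidyl-tRNA synthetase; the read-out is not stated. Compounds at 30 µM. The record gives no direction; compounds that gave an IC50 in retests scored well above the rest, so higher reads as stronger inhibition. The assay is labelled LdHisRS but filed under L. infantum. About 69,000 compounds were tested under these conditions; 0.6% (about 410) showed 50% or more at least once.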

The filed quantity is “Percent Effect” (%). How 0% and 100% were set is not recorded. Most values in the screen are low, and negative values occur. This is an unselected part of the compounds tested. Two or more numbers in one place are separate tests of the same structure; such repeats can differ widely.

With Cc1cc(C)nc(N2CCC(CNC(=O)c3ccccn3)CC2)n1 the screen gave A: 15.67%; B: 0.7299%; C: 3.158%. Cc1nn(C)c(N(C)C)c1CNCCS(C)(=O)=O read A: 2.639%; B: 0.7895%; C: -0.9259%. CCN(Cc1cc(F)c(OC)c(Cl)c1)Cc1noc(CC(C)C)n1 gave A: 3.03%; B: -0.7673%; C: 8.197%. With Cc1nn(C)c2nc3c(c(C(=O)/N=c4\[nH]nc(C(C)C)s4)c12)CCC3 the screen gave A: 5.941%; B: 0.3645%; C: -23.91%. With CC(C)(C)n1ncc2c1NC(=O)CC2c1ccsc1 (stereo not given) the screen gave A: 3.306%; B: -7.895%; C: 5.714%. For CCC(=O)N1CCCC(C(=O)c2cnn(-c3ccc(F)cc3)c2N)C1 (stereo not given) the result was A: 5.303%; B: -19.19%; C: 10.14%. Cc1cccnc1NC(=O)c1ccc(-n2cncn2)nn1 gave A: 8.247%; B: -5.285%; C: 0%. For Cc1nc(CN2C(=O)CCC23CCN(Cc2cccn2C)CC3)cs1 the result was A: 7.619%; B: 3.083%; C: 12.5%.

COc1ccc(OCCN(C)Cc2nc3c(cnn3C)c(=O)[nH]2)cc1 read A: 1.156%; B: 3.959%; C: 9.821%. With O=C(c1cnc2ccccc2c1)N1CCCC(O)(CN2CCCC2)C1 (stereo not given) the screen gave A: 6.077%; B: 11.16%; C: 6.25%. With NC(=O)C1CCCN1Cc1ccccc1NC(=O)CC(F)(F)F (stereo not given) the screen gave A: 5.102%; B: -3.24%; C: 5.714%. For CC(Cn1ccnc1)NC(=O)NCCc1cccnc1 (stereo not given) the result was A: 7.059%; B: 6.394%; C: 12.84%. O=C(c1ccsc1)N1CCO[C@@H]2CN(Cc3nccs3)C[C@@H]2C1 gave A: 5.525%; B: 0.2475%; C: 8.108%. For CCCc1noc(CN2CCN(CCC(C)C)CC2)n1 the result was A: 0%; B: 4.292%; C: 1.639%. Cc1ncoc1C(=O)N1CCOC(Cc2ccccc2)C1 (stereo not given) read A: -6.25%; B: 2.138%; C: 7.08%. With CC(C)OCCCNC(=O)CS(=O)(=O)Cc1cccc(Cl)c1 the screen gave A: 6.286%; B: 3.823%; C: 19.23%.

Cc1nccc(C2CN(C(=O)c3cncnc3)C2)n1 gave A: 14.66%; B: 8.392%; C: 11.35%. c1cnn(CC2CCCN2Cc2nc(-c3ccoc3)no2)c1 (stereo not given) gave A: 0.3774%; B: 2.216%; C: 22.97%. For COCCN(C)C[C@@H]1CN(C(=O)c2sc3ccccc3c2C)C[C@@H]1CO the result was A: -0.8772%; B: 0.8631%; C: 12.9%. With O=C(Cc1ccc2c(c1)OCCO2)N1CCN(c2cnccn2)CC1 the screen gave A: 7.602%; B: 8.163%; C: 21.82%. With Cc1nc(C(=O)N(C)C2CC(=O)N(Cc3ccccc3)C2=O)cs1 (stereo not given) the screen gave A: 8.108%; B: 0.4274%; C: 8.547%. COc1ccccc1C(C)N1CCN(S(=O)(=O)N(C)C)CC1 (stereo not given) gave A: 3.665%; B: -2.355%; C: 5.172%. Result for O=C(C1CCC1)N1CCN(Cc2cccnc2)[C@H]2CS(=O)(=O)C[C@H]21 was A: 7.921%; B: -0.8157%; C: 23.29%. Result for Cc1cc(C)c(C(=O)NC(c2nnc3n2CCNCC3)C(C)C)c(C)c1 (stereo not given) was A: 2.186%; B: 12.7% & 23.23%; C: 13.7%.

With CN(C(=O)OC(C)(C)C)C1CCN(C(=O)c2ccc(Cl)o2)C1 (stereo not given) the screen gave A: 8.38%; B: -4.839%; C: 13.16%. For CCNC(=O)CNS(=O)(=O)Cc1cc(-c2ccccc2)no1 the result was A: -6.667%; B: 1.988%; C: 9.524%. For COc1cc(CNC(=O)c2c(C)noc2C(C)C)ccn1 the result was A: -12.21%; B: 0.9639%; C: 30.14%. Cc1ccc(N2C[C@@H]3OCCN(Cc4c(C)noc4C)[C@@H]3C2)nn1 read A: -6.667%; B: 1.951%; C: 11.32%. Result for COCC(C)(CCO)NC(=O)Nc1cccc(Br)c1C (stereo not given) was A: -5.844%; B: 6.651%; C: 4.839%. O=c1cc(CN2CCC(CCc3ccc(O)cc3)CC2)[nH]c(=O)[nH]1 read A: 2.618%; B: 3.212%; C: 8.621%. Cn1ccc2ccc(C(=O)N3CCC[C@H]3C(=O)N3CCOCC3)cc21 gave A: -2.041%; B: 11.51%; C: 19.44%. COCCN(CC1CCCO1)C(=O)CCNC(=O)c1ccccc1F (stereo not given) read A: -1.149%; B: 1.6%; C: 20.51%.

For c1cncc(COCc2cncc3c2CCN(Cc2ccoc2)C3)c1 the result was A: 0%; B: 7.654%; C: 17.27%. With COC(=O)c1ccc(NC2CCN(CC(F)(F)F)C2=O)cc1C (stereo not given) the screen gave A: 3.614%; B: -0.9901%; C: -4%. CSc1ccc(CN2C[C@@H]3CC[C@@](O)(c4ccc(C)cn4)[C@@H]3C2)cc1 read A: -5.556%; B: -2.663%; C: 8.247%. O=C(c1scc2c1OCCO2)N1CCN(Cc2cccc(F)c2)CC1 read A: 7.071%; B: 0.2558%; C: 13.11%. Cn1nc(CNC(=O)CN2C(=O)CCC2=O)cc1C1CC1 gave A: -1.031%; B: 5.708%; C: 8.696%. Cc1nc(CN(C)C2CCN(CCC(=O)N3CCOCC3)C2)no1 (stereo not given) read A: 1.156%; B: -0.3831%; C: -0.8929%.

Some entries from above, unchanged:

* Cc1cc(C)c(C(=O)NC(c2nnc3n2CCNCC3)C(C)C)c(C)c1 (stereo not given) : A: 2.186%; B: 12.7% & 23.23%; C: 13.7%
* CCCc1noc(CN2CCN(CCC(C)C)CC2)n1 : A: 0%; B: 4.292%; C: 1.639%

From ChEMBL document CHEMBL3988442, “University of Dundee, Small-Polar-MMV Screening Library” (2021).